The source of these data is publication PMC10611586.

For this assay, the target named is HA–Fubi^C57A-VS (human) (UniProt P62861). The assay can be described thus: affinity purification with mass spectrometry; HeLa lysate (1 mg protein) incubated with 5 µg HA-tagged VS probe for 1 h at 37 °C, compared with lysate pretreated with 10 mM IAA; covalent conjugates enriched on anti-HA affinity gel; label-free quantification; only the target purified.

Results are given in words; binding and its absence hold for the method and conditions named. Binding seen in cells or lysates may run through a third protein. These calls come from enrichment with a bait or labelling near it, and not all partners need be listed. No binding means not detected with the bait.

B1: endogenous USP36 (enzyme, UniProt Q9P275 1-1123)
chain: MPIVDKLKEALKPGRKDSADDGELGKLLASSAKKVLLQKIEFEPASKSFSYQLEALKSKYVLLNPKTEGASRHKSGDDPPARRQGSEHTYESCGDGVPAPQKVLFPTERLSLRWERVFRVGAGLHNLGNTCFLNATIQCLTYTPPLANYLLSKEHARSCHQGSFCMLCVMQNHIVQAFANSGNAIKPVSFIRDLKKIARHFRFGNQEDAHEFLRYTIDAMQKACLNGCAKLDRQTQATTLVHQIFGGYLRSRVKCSVCKSVSDTYDPYLDVALEIRQAANIVRALELFVKADVLSGENAYMCAKCKKKVPASKRFTIHRTSNVLTLSLKRFANFSGGKITKDVGYPEFLNIRPYMSQNNGDPVMYGLYAVLVHSGYSCHAGHYYCYVKASNGQWYQMNDSLVHSSNVKVVLNQQAYVLFYLRIPGSKKSPEGLISRTGSSSLPGRPSVIPDHSKKNIGNGIISSPLTGKRQDSGTMKKPHTTEEIGVPISRNGSTLGLKSQNGCIPPKLPSGSPSPKLSQTPTHMPTILDDPGKKVKKPAPPQHFSPRTAQGLPGTSNSNSSRSGSQRQGSWDSRDVVLSTSPKLLATATANGHGLKGNDESAGLDRRGSSSSSPEHSASSDSTKAPQTPRSGAAHLCDSQETNCSTAGHSKTPPSGADSKTVKLKSPVLSNTTTEPASTMSPPPAKKLALSAKKASTLWRATGNDLRPPPPSPSSDLTHPMKTSHPVVASTWPVHRARAVSPAPQSSSRLQPPFSPHPTLLSSTPKPPGTSEPRSCSSISTALPQVNEDLVSLPHQLPEASEPPQSPSEKRKKTFVGEPQRLGSETRLPQHIREATAAPHGKRKRKKKKRPEDTAASALQEGQTQRQPGSPMYRREGQAQLPAVRRQEDGTQPQVNGQQVGCVTDGHHASSRKRRRKGAEGLGEEGGLHQDPLRHSCSPMGDGDPEAMEESPRKKKKKKRKQETQRAVEEDGHLKCPRSAKPQDAVVPESSSCAPSANGWCPGDRMGLSQAPPVSWNGERESDVVQELLKYSSDKAYGRKVLTWDGKMSAVSQDAIEDSRQARTETVVDDWDEEFDRGKEKKIKKFKREKRRNFNAFQKLQTRRNFWSVTHPAKAASLSYRR
For the molecule B1, the binding result is “binds”.

B2: endogenous USP48 (enzyme, UniProt Q86UV5 1-1035)
chain: MAPRLQLEKAAWRWAETVRPEEVSQEHIETAYRIWLEPCIRGVCRRNCKGNPNCLVGIGEHIWLGEIDENSFHNIDDPNCERRKKNSFVGLTNLGATCYVNTFLQVWFLNLELRQALYLCPSTCSDYMLGDGIQEEKDYEPQTICEHLQYLFALLQNSNRRYIDPSGFVKALGLDTGQQQDAQEFSKLFMSLLEDTLSKQKNPDVRNIVQQQFCGEYAYVTVCNQCGRESKLLSKFYELELNIQGHKQLTDCISEFLKEEKLEGDNRYFCENCQSKQNATRKIRLLSLPCTLNLQLMRFVFDRQTGHKKKLNTYIGFSEILDMEPYVEHKGGSYVYELSAVLIHRGVSAYSGHYIAHVKDPQSGEWYKFNDEDIEKMEGKKLQLGIEEDLAEPSKSQTRKPKCGKGTHCSRNAYMLVYRLQTQEKPNTTVQVPAFLQELVDRDNSKFEEWCIEMAEMRKQSVDKGKAKHEEVKELYQRLPAGAEPYEFVSLEWLQKWLDESTPTKPIDNHACLCSHDKLHPDKISIMKRISEYAADIFYSRYGGGPRLTVKALCKECVVERCRILRLKNQLNEDYKTVNNLLKAAVKGSDGFWVGKSSLRSWRQLALEQLDEQDGDAEQSNGKMNGSTLNKDESKEERKEEEELNFNEDILCPHGELCISENERRLVSKEAWSKLQQYFPKAPEFPSYKECCSQCKILEREGEENEALHKMIANEQKTSLPNLFQDKNRPCLSNWPEDTDVLYIVSQFFVEEWRKFVRKPTRCSPVSSVGNSALLCPHGGLMFTFASMTKEDSKLIALIWPSEWQMIQKLFVVDHVIKITRIEVGDVNPSETQYISEPKLCPECREGLLCQQQRDLREYTQATIYVHKVVDNKKVMKDSAPELNVSSSETEEDKEEAKPDGEKDPDFNQSNGGTKRQKISHQNYIAYQKQVIRRSMRHRKVRGEKALLVSANQTLKELKIQIMHAFSVAPFDQNLSIDGKILSDDCATLGTLGVIPESVILLKADEPIADYAAMDDVMQVCMPEEGFKGTGLLGH
In the case of B2, the binding result was “no binding”.
